Assay results taken from patent publication US8466180B2, “Insecticidal compounds” (Syngenta Crop Protection LLC, priority 2006, dated 2013).
Some results were stated once for a whole list of compounds, not compound by compound.

Assays:
Type in all cases: in vivo
[1] = test system: Aedes aegypti; assay: Aedes aegypti (yellow fever mosquito) larval test; settings: application rate 2 ppm, L2 larvae in 96-well plates, 2 days; mortality, growth inhibition
[2] = test system: Plutella xylostella; assay: Plutella xylostella (diamond back moth) larval test on artificial diet; settings: application rate 200 ppm (concentration in well 18 ppm), L2 larvae, 6 days, larval mortality, growth regulation
[3] = test system: Heliothis virescens; assay: Heliothis virescens (tobacco budworm) egg test on artificial diet; settings: application rate 200 ppm (concentration in well 18 ppm), eggs 0-24 h old on artificial diet, 4 days; egg mortality, larval mortality, growth regulation
[4] = test system: Diabrotica balteata; assay: Diabrotica balteata (corn root worm) larval test on artificial diet; settings: application rate 200 ppm (concentration in well 18 ppm), L2 larvae, 5 days, larval mortality, growth regulation
[5] = test system: Spodoptera littoralis; assay: Spodoptera littoralis (Egyptian cotton leafworm) cotton leaf disc spray test; settings: application rate 200 ppm, sprayed cotton leaf discs, L1 larvae, 3 days after treatment; mortality, feeding behaviour, growth regulation

Cc1cc(C(F)(C(F)(F)F)C(F)(F)F)cc(C)c1C(=O)Nc1cccc(NC(=O)c2ccc(F)cc2)c1 [Compound A1, N-[3-(4-fluoro-benzoylamino)-phenyl]-2,6-dimethyl-4-(1,2,2,2-tetrafluoro-1-trifluoromethyl-ethyl)-benzamide]
at least 80%: control of Aedes aegypti [1] | control of Plutella xylostella [2] | control of Heliothis virescens [3] | control of Diabrotica balteata [4] | control of Spodoptera littoralis [5]

Cc1cc(C(F)(C(F)(F)F)C(F)(F)F)cc(C)c1C(=O)Nc1cccc(NC(=O)c2cccc(Cl)c2)c1 [Compound A4]
at least 80%: control of Plutella xylostella [2] | control of Heliothis virescens [3] | control of Spodoptera littoralis [5]

Cc1cc(C(F)(C(F)(F)F)C(F)(F)F)cc(C)c1C(=O)Nc1cccc(NC(=O)c2ccccc2Cl)c1 [Compound A5]
at least 80%: control of Plutella xylostella [2] | control of Heliothis virescens [3] | control of Diabrotica balteata [4] | control of Spodoptera littoralis [5]

Cc1cc(C(F)(C(F)(F)F)C(F)(F)F)cc(C)c1C(=O)Nc1cccc(NC(=O)c2cncc(Br)c2)c1 [Compound A7]
at least 80%: control of Plutella xylostella [2] | control of Heliothis virescens [3] | control of Diabrotica balteata [4] | control of Spodoptera littoralis [5]

Cc1cc(C(F)(C(F)(F)F)C(F)(F)F)cc(C)c1C(=O)Nc1cccc(NC(=O)c2ncc(C(F)(F)F)cc2Cl)c1 [Compound A10]
at least 80%: control of Heliothis virescens [3] | control of Diabrotica balteata [4] | control of Spodoptera littoralis [5]

CSc1ncccc1C(=O)Nc1cccc(NC(=O)c2c(C)cc(C(F)(C(F)(F)F)C(F)(F)F)cc2C)c1 [Compound A11]
at least 80%: control of Heliothis virescens [3] | control of Diabrotica balteata [4] | control of Spodoptera littoralis [5]

Cc1cc(C(F)(C(F)(F)F)C(F)(F)F)cc(C)c1C(=O)Nc1cccc(NC(=O)c2cccc(F)c2F)c1 [Compound A17]
at least 80%: control of Plutella xylostella [2] | control of Heliothis virescens [3] | control of Diabrotica balteata [4] | control of Spodoptera littoralis [5]

Cc1cc(C(F)(C(F)(F)F)C(F)(F)F)cc(C)c1C(=O)Nc1cccc(NC(=O)c2ccc(Cl)s2)c1 [Compound A18]
at least 80%: control of Aedes aegypti [1] | control of Heliothis virescens [3]

Cc1cc(C(F)(C(F)(F)F)C(F)(F)F)ccc1C(=O)Nc1cccc(NC(=O)c2cc(C(F)(F)F)nn2-c2ncccc2Cl)c1 [Compound A23]
at least 80%: control of Aedes aegypti [1] | control of Heliothis virescens [3]

Cc1cc(C(F)(C(F)(F)F)C(F)(F)F)ccc1C(=O)Nc1cccc(NC(=O)c2ccc([N+](=O)[O-])cc2)c1 [Compound A26]
at least 80%: control of Aedes aegypti [1] | control of Plutella xylostella [2] | control of Diabrotica balteata [4]

Cc1cc(C(F)(C(F)(F)F)C(F)(F)F)cc(C)c1C(=O)Nc1cccc(NC(=O)c2ccc(C(F)(F)F)cc2)c1 [Compound A38]
at least 80%: control of Heliothis virescens [3] | control of Diabrotica balteata [4] | control of Spodoptera littoralis [5]

Cc1cc(C(F)(C(F)(F)F)C(F)(F)F)cc(C)c1C(=O)Nc1cccc(NC(=O)c2ccc([N+](=O)[O-])cc2F)c1 [Compound A89]
at least 80%: control of Plutella xylostella [2] | control of Heliothis virescens [3] | control of Diabrotica balteata [4]

Cc1cc(C(F)(C(F)(F)F)C(F)(F)F)cc(C)c1C(=O)Nc1cccc(NC(=O)c2ccncc2F)c1 [Compound A90]
at least 80%: control of Diabrotica balteata [4] | control of Spodoptera littoralis [5]

Cc1cc(C(F)(C(F)(F)F)C(F)(F)F)cc(C)c1C(=O)Nc1cccc(NC(=O)c2ccc(C#N)cc2F)c1 [Compound A91]
at least 80%: control of Plutella xylostella [2] | control of Heliothis virescens [3] | control of Diabrotica balteata [4] | control of Spodoptera littoralis [5]

CCc1cc(C(F)(C(F)(F)F)C(F)(F)F)cc(CC)c1C(=O)Nc1cccc(NC(=O)c2ccc([N+](=O)[O-])cc2)c1 [Compound A92]
at least 80%: control of Plutella xylostella [2] | control of Heliothis virescens [3] | control of Diabrotica balteata [4] | control of Spodoptera littoralis [5]

CCc1cc(C(F)(C(F)(F)F)C(F)(F)F)cc(CC)c1C(=O)Nc1cccc(NC(=O)c2ccc(Br)o2)c1 [Compound A93]
at least 80%: control of Plutella xylostella [2] | control of Heliothis virescens [3] | control of Diabrotica balteata [4] | control of Spodoptera littoralis [5]

CCc1cc(C(F)(C(F)(F)F)C(F)(F)F)cc(CC)c1C(=O)Nc1cccc(NC(=O)c2ccccc2F)c1 [Compound A95]
at least 80%: control of Plutella xylostella [2] | control of Heliothis virescens [3] | control of Diabrotica balteata [4]

CCc1cc(C(F)(C(F)(F)F)C(F)(F)F)cc(CC)c1C(=O)Nc1cccc(NC(=O)c2ccccc2Cl)c1 [Compound A97]
at least 80%: control of Heliothis virescens [3] | control of Diabrotica balteata [4] | control of Spodoptera littoralis [5]

CCc1cc(C(F)(C(F)(F)F)C(F)(F)F)cc(CC)c1C(=O)Nc1cccc(NC(=O)c2ccc(F)cc2)c1 [Compound A108]
at least 80%: control of Heliothis virescens [3] | control of Diabrotica balteata [4]

Cc1cc(C(F)(C(F)(F)F)C(F)(F)F)cc(C)c1C(=O)Nc1ccc(F)c(NC(=O)c2ccc(C#N)cc2)c1 [Compound B3]
at least 80%: control of Plutella xylostella [2] | control of Heliothis virescens [3] | control of Diabrotica balteata [4] | control of Spodoptera littoralis [5]

Cc1cc(C(F)(C(F)(F)F)C(F)(F)F)cc(C)c1C(=O)Nc1ccc(F)c(NC(=O)c2ccnc(Cl)c2)c1 [Compound B5]
at least 80%: control of Plutella xylostella [2] | control of Heliothis virescens [3] | control of Spodoptera littoralis [5]

Cc1cc(C(F)(C(F)(F)F)C(F)(F)F)cc(C)c1C(=O)Nc1ccc(F)c(NC(=O)c2cncc(Br)c2)c1 [Compound B6]
at least 80%: control of Plutella xylostella [2] | control of Heliothis virescens [3] | control of Diabrotica balteata [4] | control of Spodoptera littoralis [5]

Cc1cc(C(F)(C(F)(F)F)C(F)(F)F)cc(C)c1C(=O)Nc1ccc(F)c(NC(=O)c2ccc(Br)o2)c1 [Compound B7]
at least 80%: control of Plutella xylostella [2] | control of Heliothis virescens [3] | control of Diabrotica balteata [4] | control of Spodoptera littoralis [5]

Cc1cc(C(F)(C(F)(F)F)C(F)(F)F)cc(C)c1C(=O)Nc1ccc(F)c(NC(=O)c2ccc(Cl)nc2)c1 [Compound B12]
at least 80%: control of Heliothis virescens [3] | control of Diabrotica balteata [4] | control of Spodoptera littoralis [5]

Cc1cc(C(F)(C(F)(F)F)C(F)(F)F)cc(C)c1C(=O)Nc1ccc(F)c(NC(=O)c2ccc([N+](=O)[O-])cc2)c1 [Compound B13]
at least 80%: control of Plutella xylostella [2] | control of Heliothis virescens [3]

Cc1cc(C(F)(C(F)(F)F)C(F)(F)F)cc(C)c1C(=O)Nc1ccc(F)c(NC(=O)c2ccccc2)c1 [Compound B14]
at least 80%: control of Plutella xylostella [2] | control of Heliothis virescens [3] | control of Diabrotica balteata [4] | control of Spodoptera littoralis [5]

Cc1cc(C(F)(C(F)(F)F)C(F)(F)F)cc(C)c1C(=O)Nc1cccc(NC(=O)c2ccc(C#N)cc2)c1F [Compound C1]
at least 80%: control of Plutella xylostella [2] | control of Heliothis virescens [3] | control of Diabrotica balteata [4] | control of Spodoptera littoralis [5]

Cc1cc(C(F)(C(F)(F)F)C(F)(F)F)cc(C)c1C(=O)Nc1cccc(NC(=O)c2ccccc2)c1F [Compound C2]
at least 80%: control of Plutella xylostella [2] | control of Heliothis virescens [3] | control of Spodoptera littoralis [5]

Cc1cc(C(F)(C(F)(F)F)C(F)(F)F)cc(C)c1C(=O)Nc1cccc(NC(=O)c2ccc(F)cc2)c1F [Compound C3]
at least 80%: control of Plutella xylostella [2] | control of Heliothis virescens [3] | control of Diabrotica balteata [4] | control of Spodoptera littoralis [5]

Cc1cc(C(F)(C(F)(F)F)C(F)(F)F)cc(C)c1C(=O)Nc1cccc(NC(=O)c2ccc([N+](=O)[O-])cc2)c1F [Compound C5]
at least 80%: control of Plutella xylostella [2] | control of Heliothis virescens [3] | control of Diabrotica balteata [4] | control of Spodoptera littoralis [5]

Cc1cc(C(F)(C(F)(F)F)C(F)(F)F)cc(C)c1C(=O)Nc1cccc(NC(=O)c2cccc(F)c2)c1F [Compound C6]
at least 80%: control of Plutella xylostella [2] | control of Heliothis virescens [3] | control of Diabrotica balteata [4] | control of Spodoptera littoralis [5]

Cc1cccc(C(=O)Nc2cccc(NC(=O)c3c(C)cc(C(F)(C(F)(F)F)C(F)(F)F)cc3C)c2F)c1 [Compound C7]
at least 80%: control of Plutella xylostella [2] | control of Heliothis virescens [3] | control of Spodoptera littoralis [5]

Cc1cc(C(F)(C(F)(F)F)C(F)(F)F)cc(C)c1C(=O)Nc1ccc(C#N)c(NC(=O)c2ccc(F)cc2)c1 [Compound D1, N-[4-cyano-3-(4-fluoro-benzoylamino)-phenyl]-2,6-dimethyl-4-(1,2,2,2-tetrafluoro-1-trifluoromethyl-ethyl)-benzamide]
at least 80%: control of Plutella xylostella [2] | control of Heliothis virescens [3] | control of Diabrotica balteata [4] | control of Spodoptera littoralis [5]
